Measurements: article doi:10.1101/2022.09.26.509591
These are yes or no findings as the source states them, for the method shown. In cells and extracts the contact can be indirect. A yes stands for co-enrichment or nearness to the bait. Other partners may have been found. For some assays here: Tags and fused reporters may be left off the sequences shown.

Chains of the proteins cited; added tags and fusions are not shown.
UniProt Q9Y2X7: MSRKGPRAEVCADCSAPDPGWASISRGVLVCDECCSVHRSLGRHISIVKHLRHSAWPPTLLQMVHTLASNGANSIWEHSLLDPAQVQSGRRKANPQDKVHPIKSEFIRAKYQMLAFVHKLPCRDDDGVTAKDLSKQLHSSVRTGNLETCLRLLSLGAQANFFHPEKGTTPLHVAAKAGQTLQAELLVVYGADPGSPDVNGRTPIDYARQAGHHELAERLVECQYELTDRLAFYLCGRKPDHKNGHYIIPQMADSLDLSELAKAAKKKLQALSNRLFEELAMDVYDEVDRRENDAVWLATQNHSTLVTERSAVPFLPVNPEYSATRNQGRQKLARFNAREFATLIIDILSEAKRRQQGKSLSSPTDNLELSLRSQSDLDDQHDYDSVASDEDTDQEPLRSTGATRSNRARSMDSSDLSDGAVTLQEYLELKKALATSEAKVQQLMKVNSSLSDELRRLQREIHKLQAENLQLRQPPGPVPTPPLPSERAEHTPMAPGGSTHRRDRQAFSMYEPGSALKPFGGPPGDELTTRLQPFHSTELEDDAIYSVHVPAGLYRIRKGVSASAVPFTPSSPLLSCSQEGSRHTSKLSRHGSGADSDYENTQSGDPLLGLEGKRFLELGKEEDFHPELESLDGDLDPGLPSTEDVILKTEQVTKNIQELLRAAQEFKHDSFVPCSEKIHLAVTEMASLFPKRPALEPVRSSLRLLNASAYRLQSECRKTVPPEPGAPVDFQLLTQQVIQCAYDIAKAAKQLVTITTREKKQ

Key:
[1] = target: KLHL4ΔCUL3 (FLAG-tagged) (human) (UniProt Q9C0H6); experiment: affinity purification with mass spectrometry
[2] = target: T1, KLHL4^FLAG (wild type) (human) (UniProt Q9C0H6); experiment: affinity purification with mass spectrometry
T1 sequence: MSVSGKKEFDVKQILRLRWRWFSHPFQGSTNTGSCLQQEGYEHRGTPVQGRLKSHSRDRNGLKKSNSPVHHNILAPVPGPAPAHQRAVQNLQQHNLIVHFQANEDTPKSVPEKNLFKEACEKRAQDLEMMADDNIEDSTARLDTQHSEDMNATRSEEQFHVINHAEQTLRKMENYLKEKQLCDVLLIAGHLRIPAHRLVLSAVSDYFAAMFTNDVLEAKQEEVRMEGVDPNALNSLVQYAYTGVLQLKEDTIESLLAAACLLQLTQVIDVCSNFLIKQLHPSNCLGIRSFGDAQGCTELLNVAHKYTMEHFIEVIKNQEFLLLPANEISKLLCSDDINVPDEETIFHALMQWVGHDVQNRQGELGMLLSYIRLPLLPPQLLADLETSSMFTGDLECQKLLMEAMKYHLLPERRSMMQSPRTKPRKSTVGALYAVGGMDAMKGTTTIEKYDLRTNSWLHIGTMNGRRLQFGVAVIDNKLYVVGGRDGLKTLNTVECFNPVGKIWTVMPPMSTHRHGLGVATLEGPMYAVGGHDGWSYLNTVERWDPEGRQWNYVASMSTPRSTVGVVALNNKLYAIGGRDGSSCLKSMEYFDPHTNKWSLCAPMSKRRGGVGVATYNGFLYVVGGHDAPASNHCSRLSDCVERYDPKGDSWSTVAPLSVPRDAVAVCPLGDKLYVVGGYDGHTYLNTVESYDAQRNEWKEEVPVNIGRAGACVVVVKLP

binding [1]: binds
binding [2]: binds
Substance: GIT1 (endogenous) (from UniProt Q9Y2X7 1-761)
